Data source: PubChem BioAssay AID504793 (Drosophila RNAi Screening Center, 2011)
Purpose: 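Genes required for cells to halt at G2/M after double-strand DNA breaks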 (primary screen). System: Drosophila S2R+ cells. Knock-down reagent: long dsRNA against Drosophila genes, about 0.25 µg dsRNA per well. Duration: 4 days of dsRNA, then 4 hours of drug before read-out. Conditions: doxorubicin 0.5 µM for 4 hours to cause double-strand breaks, in cells also given a low, harmless dose of dsRNA against nbs to sensitise the assay. Measurement: 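Per-well count of mitotic cells stained for phospho-histone H3 after doxorubicin exposure, used as mitotic index; counts are raw and not normalised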. Scale: mitotic cells: higher = more cells in mitosis, weaker G2 arrest. Call rule: 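Genes are called active only when high mitotic counts were reproduced with independent dsRNAs and mitosis was checked for delay without damage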. Meaning of the calls: active = confirmed in follow-up tests; inactive = not confirmed.
The deposit covers about 23,000 reagents; this is an unselected part of those that have a named target and a result. In the full data, 62 (0.27%) are marked active. 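Calls come from follow-up tests whose scores are not deposited, so confirmed genes may have low counts here; counts are not normalised per plate.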 The raw values are shown without normalisation. The numbers tell different reagents against one gene apart. Names joined by + are all predicted targets of the reagent.

gene	reagent	mitotic cells, replicate 1	activity call
NKCC (sodium potassium chloride cotransporter)	1	5	inactive
NKCC (sodium potassium chloride cotransporter)	2	4	inactive
CG17169	1	3	inactive
CG15602	1	5	inactive
CG15602	2	7	inactive
CG8929	1	5	inactive
CG8929	2	10	inactive
CG32026	1	9	inactive
CG32026	2	6	inactive
Dh31-R (Diuretic hormone 31 Receptor)	1	2	inactive
Dh31-R (Diuretic hormone 31 Receptor)	2	7	inactive
shu (shutdown)	1	5	inactive
shu (shutdown)	2	5	inactive
CG15247	1	5	inactive
CG15247	2	10	inactive
CG17129	1	8	inactive
PHDP (Putative homeodomain protein)	1	6	inactive
Tina-1 (Troponin C-akin-1)	1	9	inactive
CG31678	1	4	inactive
CG31678	2	3	inactive
CG13841	1	7	inactive
CG13841	2	8	inactive
gsb-n (gooseberry-neuro)	1	4	inactive
gsb-n (gooseberry-neuro)	2	5	inactive
Gyc89Db (Guanylyl cyclase at 89Db)	1	6	inactive
CG5274	1	8	inactive
Gagr (Gag-related)	1	9	inactive
Taf10b (TBP-associated factor 10b)	1	10	inactive
Alr (Augmenter of liver regeneration)	1	6	inactive
CG34342	1	4	inactive
CG34342	2	8	inactive
CG34342	3	3	inactive
magu	1	3	inactive
CG32856	1	9	inactive
CG32856	2	10	inactive
Pex23 (Peroxin 23)	1	1	inactive
Pex23 (Peroxin 23)	2	1	inactive
Pex23 (Peroxin 23)	3	4	inactive
CG32564	1	7	inactive
CG32564	2	6	inactive
CG10737	1	11	inactive
CG10737	2	9	inactive
CG13891	1	4	inactive
CG13891	2	9	inactive
caup (caupolican)	1	9	inactive
mus301 (mutagen-sensitive 301)	1	3	inactive
CG31637	1	12	inactive
CG31637	2	6	inactive
CG31637	3	8	inactive
Ir75b (Ionotropic receptor 75b)	1	5	inactive
CG8908	1	5	inactive
ND6 (retired record)	1	12	inactive
CG10651	1	10	inactive
tgy (twiggy)	1	3	inactive
CG15043	1	8	inactive
CG15043	2	8	inactive
Pop4 (POP4 ribonuclease P/MRP subunit)	1	3	inactive
Pop4 (POP4 ribonuclease P/MRP subunit)	2	11	inactive
TotM (Turandot M)	1	14	inactive
CG6209	1	9	inactive
CG6209	2	8	inactive
CG31789	1	3	inactive
CG31789	2	7	inactive
mRpL30 (mitochondrial ribosomal protein L30)	1	11	inactive
mRpL30 (mitochondrial ribosomal protein L30)	2	3	inactive
l(3)62Be (retired record)	1	13	inactive
CG3819	1	8	inactive
CG3819	2	4	inactive
CG31371	1	8	inactive
dgo (diego)	1	9	inactive
dgo (diego)	2	4	inactive
TfIIA-S-2	1	10	inactive
CG10209	1	6	inactive
Lipt2 (Lipoyl(octanoyl) transferase 2)	1	16	inactive
Lipt2 (Lipoyl(octanoyl) transferase 2)	2	11	inactive
Ugt37C2 (UDP-glycosyltransferase family 37 member C2)	1	8	inactive
Tsp42Eq (Tetraspanin 42Eq)	1	2	inactive
CLS (Cardiolipin synthase)	1	13	inactive
CLS (Cardiolipin synthase)	2	10	inactive
CG13653	1	6	inactive
CG31288	1	13	inactive
CG31288	2	5	inactive
CG4822	1	5	inactive
CG12983	1	3	inactive
egh (egghead)	1	8	inactive
egh (egghead)	2	8	inactive
CG13364	1	10	inactive
CG13364	2	4	inactive
CG13364	3	3	inactive
CG3337	1	4	inactive
Asciz (ASCIZ zinc finger protein)	1		inactive
Men (Malic enzyme)	1	6	inactive
Men (Malic enzyme)	2	14	inactive
Men (Malic enzyme)	3	8	inactive
Men (Malic enzyme)	4	5	inactive
twi (twist)	1	8	inactive
twi (twist)	2	1	inactive
CG8149	1	4	inactive
CG30349	1	6	inactive
CG30349	2	6	inactive
CG30349	3	6	inactive
UGP + PGRP-LF	1	4	inactive
CG31088	1	11	inactive
CG31088	2	7	inactive
CG13760	1	3	inactive
CG7488	1	7	inactive
Iru (Iruka)	1	8	inactive
run (runt)	1	4	inactive
run (runt)	2	7	inactive
run (runt)	3	10	inactive

In a second layout: results already given
mus301 (mutagen-sensitive 301): mitotic cells, replicate 1 = 3; activity call = inactive
CG31637 #1: mitotic cells, replicate 1 = 12; activity call = inactive
CG31637 #2: mitotic cells, replicate 1 = 6; activity call = inactive
CG31637 #3: mitotic cells, replicate 1 = 8; activity call = inactive
Ir75b (Ionotropic receptor 75b): mitotic cells, replicate 1 = 5; activity call = inactive
CG8908: mitotic cells, replicate 1 = 5; activity call = inactive
ND6 (retired record): mitotic cells, replicate 1 = 12; activity call = inactive
CG10651: mitotic cells, replicate 1 = 10; activity call = inactive
tgy (twiggy): mitotic cells, replicate 1 = 3; activity call = inactive
CG15043 #1: mitotic cells, replicate 1 = 8; activity call = inactive
CG15043 #2: mitotic cells, replicate 1 = 8; activity call = inactive
Pop4 (POP4 ribonuclease P/MRP subunit) #1: mitotic cells, replicate 1 = 3; activity call = inactive
Pop4 (POP4 ribonuclease P/MRP subunit) #2: mitotic cells, replicate 1 = 11; activity call = inactive
TotM (Turandot M): mitotic cells, replicate 1 = 14; activity call = inactive
CG6209 #1: mitotic cells, replicate 1 = 9; activity call = inactive
CG6209 #2: mitotic cells, replicate 1 = 8; activity call = inactive
CG31789 #1: mitotic cells, replicate 1 = 3; activity call = inactive
CG31789 #2: mitotic cells, replicate 1 = 7; activity call = inactive
mRpL30 (mitochondrial ribosomal protein L30) #1: mitotic cells, replicate 1 = 11; activity call = inactive
